Reference: paper PMC12168302
These are yes or no findings as the source states them, for the method shown. Binding seen in cells or lysates may run through a third protein. Some results given as binding are weak or reduced against the parent protein; the word gives no strength.

The chains behind the UniProt entries cited, without tags or fusion partners.
UniProt Q16665: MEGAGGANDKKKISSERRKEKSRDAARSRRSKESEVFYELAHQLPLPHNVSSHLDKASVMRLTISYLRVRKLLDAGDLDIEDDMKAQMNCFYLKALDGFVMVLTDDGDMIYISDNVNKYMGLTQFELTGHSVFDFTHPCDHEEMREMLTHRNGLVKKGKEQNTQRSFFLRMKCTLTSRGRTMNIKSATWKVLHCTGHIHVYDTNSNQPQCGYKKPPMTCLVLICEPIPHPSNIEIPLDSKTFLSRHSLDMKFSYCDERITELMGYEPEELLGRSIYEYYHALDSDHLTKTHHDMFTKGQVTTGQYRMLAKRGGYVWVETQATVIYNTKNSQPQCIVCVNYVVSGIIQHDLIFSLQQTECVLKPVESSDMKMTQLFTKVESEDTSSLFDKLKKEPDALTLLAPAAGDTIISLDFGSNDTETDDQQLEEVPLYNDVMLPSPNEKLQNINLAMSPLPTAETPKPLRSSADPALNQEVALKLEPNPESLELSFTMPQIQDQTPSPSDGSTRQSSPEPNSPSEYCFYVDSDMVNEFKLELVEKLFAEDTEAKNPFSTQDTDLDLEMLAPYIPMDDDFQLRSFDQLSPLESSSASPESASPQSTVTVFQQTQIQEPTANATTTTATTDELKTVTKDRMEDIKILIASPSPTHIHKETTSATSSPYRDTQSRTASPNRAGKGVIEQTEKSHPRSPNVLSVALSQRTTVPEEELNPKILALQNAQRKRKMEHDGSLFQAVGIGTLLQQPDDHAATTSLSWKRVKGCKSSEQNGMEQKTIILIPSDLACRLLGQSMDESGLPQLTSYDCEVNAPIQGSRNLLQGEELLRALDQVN

Biological target: hypoxia-inducible factor 1 alpha (HIF1A) (human (endogenous in HCT116 and RKO)) (UniProt Q16665)
Assay: co-IP; immunoprecipitation with anti-HIF1A from HCT116 and RKO cells; 1.0 mg protein with antibody overnight at 4 °C, 20 µL beads 2 h at 4 °C; WB with anti-HIF-1α and anti-ALDOC

B1: Aldolase C (ALDOC) (protein, UniProt P09972 1-364)
chain: MPHSYPALSAEQKKELSDIALRIVAPGKGILAADESVGSMAKRLSQIGVENTEENRRLYRQVLFSADDRVKKCIGGVIFFHETLYQKDDNGVPFVRTIQDKGIVVGIKVDKGVVPLAGTDGETTTQGLDGLSERCAQYKKDGADFAKWRCVLKISERTPSALAILENANVLARYASICQQNGIVPIVEPEILPDGDHDLKRCQYVTEKVLAAVYKALSDHHVYLEGTLLKPNMVTPGHACPIKYTPEEIAMATVTALRRTVPPAVPGVTFLSGGQSEEEASFNLNAINRCPLPRPWALTFSYGRALQASALNAWRGQRDNAGAATEEFIKRAEVNGLAAQGKYEGSGEDGGAAAQSLYIANHAY
- binding: binds
